Experimental data taken from the supplement of paper PMC12067093, “Discovery and optimisation of a covalent ligand for TRIM25 and its application to targeted protein ubiquitination” (Chemical Science, 2025).
The list shows a part of the results.

By UniProt entry, the sequences of proteins in these tests, tags left out. Where a name states a change or a piece, a line headed by the entry shows the natural chain unless it says otherwise.
UniProt Q5JSL3: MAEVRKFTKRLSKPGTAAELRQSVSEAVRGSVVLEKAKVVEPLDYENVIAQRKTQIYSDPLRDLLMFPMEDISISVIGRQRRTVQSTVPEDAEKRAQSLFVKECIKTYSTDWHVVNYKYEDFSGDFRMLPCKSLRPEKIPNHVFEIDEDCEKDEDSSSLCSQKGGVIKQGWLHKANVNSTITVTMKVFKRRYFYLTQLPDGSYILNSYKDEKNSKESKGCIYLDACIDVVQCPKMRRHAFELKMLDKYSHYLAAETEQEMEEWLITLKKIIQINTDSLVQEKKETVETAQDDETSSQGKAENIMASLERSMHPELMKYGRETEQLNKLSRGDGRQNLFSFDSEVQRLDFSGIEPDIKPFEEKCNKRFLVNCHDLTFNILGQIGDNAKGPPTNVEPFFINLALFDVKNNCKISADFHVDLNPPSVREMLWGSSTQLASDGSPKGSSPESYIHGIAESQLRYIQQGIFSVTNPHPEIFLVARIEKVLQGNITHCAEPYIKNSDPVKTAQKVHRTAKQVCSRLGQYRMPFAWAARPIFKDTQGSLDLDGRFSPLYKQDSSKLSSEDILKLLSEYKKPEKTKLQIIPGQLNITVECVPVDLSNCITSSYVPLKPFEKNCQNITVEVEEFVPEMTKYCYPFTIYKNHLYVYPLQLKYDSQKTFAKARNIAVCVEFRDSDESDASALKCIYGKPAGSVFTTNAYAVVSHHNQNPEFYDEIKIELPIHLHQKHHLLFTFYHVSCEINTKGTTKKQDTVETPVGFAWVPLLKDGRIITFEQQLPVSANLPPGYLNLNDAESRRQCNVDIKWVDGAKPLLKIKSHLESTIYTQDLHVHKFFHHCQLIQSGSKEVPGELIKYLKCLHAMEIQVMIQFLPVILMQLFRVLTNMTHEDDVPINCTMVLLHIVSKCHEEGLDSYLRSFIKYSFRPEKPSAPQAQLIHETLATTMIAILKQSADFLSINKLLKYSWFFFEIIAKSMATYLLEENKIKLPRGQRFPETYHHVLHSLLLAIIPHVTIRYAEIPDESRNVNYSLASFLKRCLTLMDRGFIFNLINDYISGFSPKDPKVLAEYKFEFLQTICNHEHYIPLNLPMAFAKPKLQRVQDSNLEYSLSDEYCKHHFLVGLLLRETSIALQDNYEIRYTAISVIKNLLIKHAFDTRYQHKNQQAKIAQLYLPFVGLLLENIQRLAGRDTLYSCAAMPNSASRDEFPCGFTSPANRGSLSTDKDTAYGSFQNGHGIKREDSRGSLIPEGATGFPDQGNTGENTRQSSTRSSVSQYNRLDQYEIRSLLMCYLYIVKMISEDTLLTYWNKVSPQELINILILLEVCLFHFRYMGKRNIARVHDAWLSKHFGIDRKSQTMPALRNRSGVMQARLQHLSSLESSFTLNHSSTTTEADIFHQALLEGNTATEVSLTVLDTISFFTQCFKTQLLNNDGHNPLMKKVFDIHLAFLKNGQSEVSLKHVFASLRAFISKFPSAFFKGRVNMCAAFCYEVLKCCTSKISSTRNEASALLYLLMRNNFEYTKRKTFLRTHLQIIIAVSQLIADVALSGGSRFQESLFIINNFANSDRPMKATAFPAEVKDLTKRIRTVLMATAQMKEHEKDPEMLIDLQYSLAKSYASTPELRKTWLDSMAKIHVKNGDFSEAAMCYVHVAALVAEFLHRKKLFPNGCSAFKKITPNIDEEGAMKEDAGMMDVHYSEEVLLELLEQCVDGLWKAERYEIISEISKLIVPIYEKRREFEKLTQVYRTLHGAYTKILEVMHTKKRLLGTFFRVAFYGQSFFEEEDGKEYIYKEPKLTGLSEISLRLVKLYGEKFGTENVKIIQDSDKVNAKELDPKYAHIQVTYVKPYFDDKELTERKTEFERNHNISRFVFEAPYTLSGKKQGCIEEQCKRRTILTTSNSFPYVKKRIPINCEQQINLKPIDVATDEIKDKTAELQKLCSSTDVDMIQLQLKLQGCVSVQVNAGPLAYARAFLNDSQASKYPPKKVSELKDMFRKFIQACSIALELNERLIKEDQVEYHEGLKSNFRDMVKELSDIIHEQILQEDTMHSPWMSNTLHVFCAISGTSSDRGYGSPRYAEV
UniProt Q8NF50: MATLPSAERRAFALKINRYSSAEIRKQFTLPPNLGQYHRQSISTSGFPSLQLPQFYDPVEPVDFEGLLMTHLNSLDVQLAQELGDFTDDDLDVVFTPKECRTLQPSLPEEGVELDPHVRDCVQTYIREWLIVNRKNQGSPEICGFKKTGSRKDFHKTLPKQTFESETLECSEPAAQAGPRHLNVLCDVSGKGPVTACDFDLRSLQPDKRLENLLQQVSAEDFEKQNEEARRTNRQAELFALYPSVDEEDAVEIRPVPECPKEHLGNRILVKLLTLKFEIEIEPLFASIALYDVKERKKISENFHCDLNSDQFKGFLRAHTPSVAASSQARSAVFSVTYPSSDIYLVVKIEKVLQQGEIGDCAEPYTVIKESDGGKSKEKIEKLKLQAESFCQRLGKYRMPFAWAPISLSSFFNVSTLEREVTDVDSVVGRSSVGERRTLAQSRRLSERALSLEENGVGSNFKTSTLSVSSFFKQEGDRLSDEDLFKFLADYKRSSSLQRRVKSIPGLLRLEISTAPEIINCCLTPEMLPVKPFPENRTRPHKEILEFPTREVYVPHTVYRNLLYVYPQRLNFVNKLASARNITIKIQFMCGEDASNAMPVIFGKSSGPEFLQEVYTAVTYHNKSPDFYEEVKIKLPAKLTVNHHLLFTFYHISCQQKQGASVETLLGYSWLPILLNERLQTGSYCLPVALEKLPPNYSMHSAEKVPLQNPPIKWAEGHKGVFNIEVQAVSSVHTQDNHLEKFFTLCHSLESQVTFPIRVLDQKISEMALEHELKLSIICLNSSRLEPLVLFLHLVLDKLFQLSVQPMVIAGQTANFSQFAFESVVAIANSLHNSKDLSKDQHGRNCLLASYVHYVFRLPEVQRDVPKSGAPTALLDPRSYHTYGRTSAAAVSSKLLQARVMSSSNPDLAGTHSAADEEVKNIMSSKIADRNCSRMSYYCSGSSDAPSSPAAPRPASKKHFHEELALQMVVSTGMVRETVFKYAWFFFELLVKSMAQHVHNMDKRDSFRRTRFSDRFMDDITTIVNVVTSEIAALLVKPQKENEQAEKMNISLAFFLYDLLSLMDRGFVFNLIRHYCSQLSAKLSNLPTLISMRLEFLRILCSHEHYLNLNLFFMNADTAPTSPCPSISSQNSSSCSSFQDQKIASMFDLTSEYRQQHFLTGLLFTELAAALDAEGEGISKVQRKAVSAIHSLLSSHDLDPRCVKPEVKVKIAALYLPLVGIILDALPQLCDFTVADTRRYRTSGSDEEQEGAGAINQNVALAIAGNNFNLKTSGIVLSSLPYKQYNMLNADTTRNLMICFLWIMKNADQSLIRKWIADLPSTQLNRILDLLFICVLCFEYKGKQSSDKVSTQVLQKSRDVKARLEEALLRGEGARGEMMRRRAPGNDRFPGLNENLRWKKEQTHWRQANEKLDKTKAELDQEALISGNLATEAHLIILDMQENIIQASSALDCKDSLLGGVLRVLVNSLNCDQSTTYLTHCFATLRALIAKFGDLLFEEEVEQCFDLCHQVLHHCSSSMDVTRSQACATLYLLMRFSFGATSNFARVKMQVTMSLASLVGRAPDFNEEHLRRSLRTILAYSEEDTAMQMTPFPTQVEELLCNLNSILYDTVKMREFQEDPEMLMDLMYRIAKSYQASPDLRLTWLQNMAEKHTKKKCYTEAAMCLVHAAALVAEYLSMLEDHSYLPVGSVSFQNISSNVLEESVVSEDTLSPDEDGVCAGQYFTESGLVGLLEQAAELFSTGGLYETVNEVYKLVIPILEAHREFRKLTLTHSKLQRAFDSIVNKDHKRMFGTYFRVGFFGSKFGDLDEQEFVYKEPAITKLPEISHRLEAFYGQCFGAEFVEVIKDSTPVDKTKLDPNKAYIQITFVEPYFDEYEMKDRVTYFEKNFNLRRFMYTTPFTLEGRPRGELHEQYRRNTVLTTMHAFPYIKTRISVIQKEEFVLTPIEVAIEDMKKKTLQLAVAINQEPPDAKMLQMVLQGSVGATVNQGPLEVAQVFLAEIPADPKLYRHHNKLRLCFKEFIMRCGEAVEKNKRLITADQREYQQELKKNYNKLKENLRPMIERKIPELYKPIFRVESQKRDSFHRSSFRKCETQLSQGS
UniProt P60981: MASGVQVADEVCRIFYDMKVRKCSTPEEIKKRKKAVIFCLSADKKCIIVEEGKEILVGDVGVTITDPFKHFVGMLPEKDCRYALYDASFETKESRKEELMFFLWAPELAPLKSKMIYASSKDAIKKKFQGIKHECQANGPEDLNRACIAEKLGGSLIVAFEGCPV
UniProt Q7L591: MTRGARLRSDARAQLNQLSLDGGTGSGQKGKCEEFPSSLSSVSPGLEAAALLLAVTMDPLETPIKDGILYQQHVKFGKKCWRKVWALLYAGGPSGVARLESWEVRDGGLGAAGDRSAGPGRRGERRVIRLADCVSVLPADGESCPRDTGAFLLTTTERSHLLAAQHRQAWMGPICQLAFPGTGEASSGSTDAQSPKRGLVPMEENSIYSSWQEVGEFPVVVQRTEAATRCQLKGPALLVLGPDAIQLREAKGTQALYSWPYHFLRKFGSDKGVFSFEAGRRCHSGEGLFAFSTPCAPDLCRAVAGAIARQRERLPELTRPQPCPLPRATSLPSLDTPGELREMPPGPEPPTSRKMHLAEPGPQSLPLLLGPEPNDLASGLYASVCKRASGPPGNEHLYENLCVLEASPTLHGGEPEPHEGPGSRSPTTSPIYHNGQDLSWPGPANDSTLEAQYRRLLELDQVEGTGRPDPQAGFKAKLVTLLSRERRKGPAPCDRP
UniProt Q9BTV6: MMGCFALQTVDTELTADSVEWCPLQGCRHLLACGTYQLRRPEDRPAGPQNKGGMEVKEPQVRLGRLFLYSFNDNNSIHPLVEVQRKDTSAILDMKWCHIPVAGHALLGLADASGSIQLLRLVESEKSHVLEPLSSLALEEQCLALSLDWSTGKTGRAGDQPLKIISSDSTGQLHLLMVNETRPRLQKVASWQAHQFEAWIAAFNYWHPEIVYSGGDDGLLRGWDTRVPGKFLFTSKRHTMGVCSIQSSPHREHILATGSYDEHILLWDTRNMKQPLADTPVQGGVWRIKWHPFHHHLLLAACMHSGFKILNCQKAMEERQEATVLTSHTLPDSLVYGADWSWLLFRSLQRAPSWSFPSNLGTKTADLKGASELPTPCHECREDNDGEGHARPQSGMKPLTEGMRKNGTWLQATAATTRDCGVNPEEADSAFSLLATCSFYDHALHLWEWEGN
UniProt Q86TI2: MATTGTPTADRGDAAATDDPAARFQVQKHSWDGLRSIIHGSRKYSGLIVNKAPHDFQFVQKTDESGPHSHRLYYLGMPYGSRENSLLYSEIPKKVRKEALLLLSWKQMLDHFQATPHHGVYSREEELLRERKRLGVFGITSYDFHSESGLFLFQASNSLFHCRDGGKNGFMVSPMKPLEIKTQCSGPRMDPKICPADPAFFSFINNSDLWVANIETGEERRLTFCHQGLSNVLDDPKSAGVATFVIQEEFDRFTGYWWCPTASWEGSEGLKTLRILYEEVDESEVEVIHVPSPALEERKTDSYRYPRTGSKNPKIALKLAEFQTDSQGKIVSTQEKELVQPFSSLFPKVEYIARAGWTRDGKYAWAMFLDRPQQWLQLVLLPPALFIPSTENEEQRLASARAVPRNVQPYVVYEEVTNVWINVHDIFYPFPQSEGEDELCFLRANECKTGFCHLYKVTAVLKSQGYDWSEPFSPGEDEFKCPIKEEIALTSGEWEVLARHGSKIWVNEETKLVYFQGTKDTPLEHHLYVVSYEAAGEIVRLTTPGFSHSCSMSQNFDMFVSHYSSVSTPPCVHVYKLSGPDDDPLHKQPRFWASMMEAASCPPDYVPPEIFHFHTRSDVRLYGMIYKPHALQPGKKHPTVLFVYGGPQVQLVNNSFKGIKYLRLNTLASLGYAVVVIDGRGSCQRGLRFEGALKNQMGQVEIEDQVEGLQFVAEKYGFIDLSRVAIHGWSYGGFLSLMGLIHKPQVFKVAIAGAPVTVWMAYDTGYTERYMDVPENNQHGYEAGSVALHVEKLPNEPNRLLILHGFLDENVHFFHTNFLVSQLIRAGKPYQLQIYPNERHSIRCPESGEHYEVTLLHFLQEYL

Compound: CC1Cc2ccccc2N1C(=O)C1CCCN(C1)C(=O)CCl (mixture of isomers) [TRIM25 ligand 11 (diastereomer mixture)]
Assay: probe-labelled cysteine peptide fold change vs DMSO (competition) (log2 fold change); higher = less target engagement (more negative = stronger competition)
Conditions: THP-1, incubation time: 4 h
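Also: competitive chemoproteomic profiling in live THP-1 cells with an iodoacetamide desthiobiotin (IA-DTB) probe, comparing probe-labelled peptide intensities in compound-treated cells against DMSO-treated controls.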

## DOT1L_Q8TEK3_1075_GDCVPSHGQDSR (UniProt Q8TEK3)
10 µM
  probe-labelled cysteine peptide fold change: -0.0176
50 µM
  probe-labelled cysteine peptide fold change: -0.0408

## DUS1L_Q6P1R4_265_EHPCPLSYVR (UniProt Q6P1R4)
10 µM
  probe-labelled cysteine peptide fold change: 0.219
50 µM
  probe-labelled cysteine peptide fold change: 0.148

## DOCK11_Q5JSL3_1074_FEFLQTICNHEHYIPLNLPMAFAK (UniProt Q5JSL3)
10 µM
  probe-labelled cysteine peptide fold change: 0.132
50 µM
  probe-labelled cysteine peptide fold change: 0.169

## DUS2_Q9NX74_430_KLAEQAAAIVCLR (UniProt Q9NX74)
10 µM
  probe-labelled cysteine peptide fold change: -0.0328
50 µM
  probe-labelled cysteine peptide fold change: -0.125

## DPP7_Q9UHL4_338_LYHSCADPTGCGTGPDAR (UniProt Q9UHL4)
10 µM
  probe-labelled cysteine peptide fold change: 0.0279
50 µM
  probe-labelled cysteine peptide fold change: 0.022

## DYNC1LI1_Q9Y6G9_247_CDAISVLEK (UniProt Q9Y6G9)
10 µM
  probe-labelled cysteine peptide fold change: -0.0191
50 µM
  probe-labelled cysteine peptide fold change: 0.297

## DYNC1H1_Q14204_2663_WLVLFCDEINLPDMDK (UniProt Q14204)
10 µM
  probe-labelled cysteine peptide fold change: -0.0337
50 µM
  probe-labelled cysteine peptide fold change: 0.0297

## DSCR3_O14972_187_GHLNSTNCVITQPLTGELVVESSEAAIR (UniProt O14972)
10 µM
  probe-labelled cysteine peptide fold change: 0.169
50 µM
  probe-labelled cysteine peptide fold change: -0.0104

## DOCK8_Q8NF50_590_IQFMCGEDASNAMPVIFGK (UniProt Q8NF50)
10 µM
  probe-labelled cysteine peptide fold change: -0.02
50 µM
  probe-labelled cysteine peptide fold change: 0.209

## DYNC1H1_Q14204_2712_IQFVGACNPPTDPGRKPLSHR (UniProt Q14204)
10 µM
  probe-labelled cysteine peptide fold change: 0.0109
50 µM
  probe-labelled cysteine peptide fold change: 0.294

## DOCK11_Q5JSL3_1190_DTLYSCAAMPNSASR (UniProt Q5JSL3)
10 µM
  probe-labelled cysteine peptide fold change: -0.166
50 µM
  probe-labelled cysteine peptide fold change: -0.29

## DSTN_P60981_147_ACIAEK (UniProt P60981)
10 µM
  probe-labelled cysteine peptide fold change: 0.106
50 µM
  probe-labelled cysteine peptide fold change: 0.171

## DOK3_Q7L591_282+295_CHSGEGLFAFSTPCAPDLCR (UniProt Q7L591)
10 µM
  probe-labelled cysteine peptide fold change: 0.251
50 µM
  probe-labelled cysteine peptide fold change: -0.532

## DTNBP1_Q96EV8_302_AKPPSSSSTCTDSATR (UniProt Q96EV8)
10 µM
  probe-labelled cysteine peptide fold change: -0.104
50 µM
  probe-labelled cysteine peptide fold change: -0.135

## DPH7_Q9BTV6_33_HLLACGTYQLR (UniProt Q9BTV6)
10 µM
  probe-labelled cysteine peptide fold change: -0.00198
50 µM
  probe-labelled cysteine peptide fold change: 0.144

## DYNC1LI2_O43237_231_RGPLTSGSDEENVALPLGDNVLTHNLGIPVLVVCTK (UniProt O43237)
10 µM
  probe-labelled cysteine peptide fold change: 0.071
50 µM
  probe-labelled cysteine peptide fold change: 0.371

## DXO_O77932_108_DEEVQERLDHLLCWLLEHR (UniProt O77932)
10 µM
  probe-labelled cysteine peptide fold change: 0.0665
50 µM
  probe-labelled cysteine peptide fold change: 0.218

## DOCK8_Q8NF50_305_ISENFHCDLNSDQFK (UniProt Q8NF50)
10 µM
  probe-labelled cysteine peptide fold change: 0.00696
50 µM
  probe-labelled cysteine peptide fold change: -0.113

## DPF2_Q92785_306_SGHPSCLQFTPVMMAAVK (UniProt Q92785)
10 µM
  probe-labelled cysteine peptide fold change: 0.0756
50 µM
  probe-labelled cysteine peptide fold change: -0.322

## DPP9_Q86TI2_259_FTGYWWCPTASWEGSEGLK (UniProt Q86TI2)
10 µM
  probe-labelled cysteine peptide fold change: -0.024
50 µM
  probe-labelled cysteine peptide fold change: 0.118

## DOK3_Q7L591_282_CHSGEGLFAFSTPCAPDLCR (UniProt Q7L591)
10 µM
  probe-labelled cysteine peptide fold change: 0.0857
50 µM
  probe-labelled cysteine peptide fold change: 0.211

## DTX3L_Q8TDB6_585_HEFCAPCINK (UniProt Q8TDB6)
10 µM
  probe-labelled cysteine peptide fold change: 0.0682
50 µM
  probe-labelled cysteine peptide fold change: 0.0322

## DYNC1H1_Q14204_4644_GVAVLCTE (UniProt Q14204)
10 µM
  probe-labelled cysteine peptide fold change: 0.0055
50 µM
  probe-labelled cysteine peptide fold change: 0.0643

## DOCK2_Q92608_1117_KATIPIFFDMMLCEYQR (UniProt Q92608)
10 µM
  probe-labelled cysteine peptide fold change: -0.119
50 µM
  probe-labelled cysteine peptide fold change: 0.0215

## DOCK11_Q5JSL3_1883_QGCIEEQCK (UniProt Q5JSL3)
10 µM
  probe-labelled cysteine peptide fold change: -0.0739
50 µM
  probe-labelled cysteine peptide fold change: -0.14

## DYNC1H1_Q14204_4570_LQGATCNNNK (UniProt Q14204)
10 µM
  probe-labelled cysteine peptide fold change: -0.0319
50 µM
  probe-labelled cysteine peptide fold change: 0.0555

## DOCK5_Q9H7D0_316_KHTCGLR (UniProt Q9H7D0)
10 µM
  probe-labelled cysteine peptide fold change: 0.153
50 µM
  probe-labelled cysteine peptide fold change: 0.0645

## DTX3L_Q8TDB6_446_QVDLSVHAYASFIDAFQHASCQLMR (UniProt Q8TDB6)
10 µM
  probe-labelled cysteine peptide fold change: 0.406
50 µM
  probe-labelled cysteine peptide fold change: 0.224

## DYNC1H1_Q14204_1977_MLSAVSQQVQCIQEALREHSNPNYDK (UniProt Q14204)
10 µM
  probe-labelled cysteine peptide fold change: -0.708
50 µM
  probe-labelled cysteine peptide fold change: -0.193

## DPP8_Q6V1X1_221_LCPADPDWIAFIHSNDIWISNIVTR (UniProt Q6V1X1)
10 µM
  probe-labelled cysteine peptide fold change: 0.0503
50 µM
  probe-labelled cysteine peptide fold change: -0.28

## DSCR3_O14972_219+221_VETCGCAEGYAR (UniProt O14972)
10 µM
  probe-labelled cysteine peptide fold change: 0.076
50 µM
  probe-labelled cysteine peptide fold change: 0.0699

## DSC2_Q02487_797_GGHQTSESCR (UniProt Q02487)
10 µM
  probe-labelled cysteine peptide fold change: 0.122
50 µM
  probe-labelled cysteine peptide fold change: -0.209

## EAF2_Q96CJ1_87+98_ECILIINHDTGECR (UniProt Q96CJ1)
10 µM
  probe-labelled cysteine peptide fold change: 0.522
50 µM
  probe-labelled cysteine peptide fold change: 0.11

## DUT_P33316_166_TDIQIALPSGCYGR (UniProt P33316)
10 µM
  probe-labelled cysteine peptide fold change: 0.0433
50 µM
  probe-labelled cysteine peptide fold change: 0.0518

## DYNC1H1_Q14204_2454_CLGSLFSMLHQACR (UniProt Q14204)
10 µM
  probe-labelled cysteine peptide fold change: -0.164
50 µM
  probe-labelled cysteine peptide fold change: 0.133

## DUS3L_Q96G46_162_CVLFETFGR (UniProt Q96G46)
10 µM
  probe-labelled cysteine peptide fold change: 0.044
50 µM
  probe-labelled cysteine peptide fold change: -0.0826

## DTX3L_Q8TDB6_219_DSCISPSEPETK (UniProt Q8TDB6)
10 µM
  probe-labelled cysteine peptide fold change: -0.183
50 µM
  probe-labelled cysteine peptide fold change: -0.184

## DYNC1I2_Q13409_386_TPLSAAAHTHPVYCVNVVGTQNAHNLISISTDGK (UniProt Q13409)
10 µM
  probe-labelled cysteine peptide fold change: 0.383
50 µM
  probe-labelled cysteine peptide fold change: -0.0566
